Results taken from US20220213467A1.
No constants are given. Whether binding was seen depends on the method and setting. Some binding calls cover weakened binding; strength is not graded here. Sequences can lack the tags named with a protein.

Tests used:
[1] = target: T1, gp11 fused to an HA peptide (gp11-HA), bacteriophage T4 gene product 11 (bacteriophage T4) (UniProt P10929); assay: on-chip gene-10 titration, post-staining
T1 sequence: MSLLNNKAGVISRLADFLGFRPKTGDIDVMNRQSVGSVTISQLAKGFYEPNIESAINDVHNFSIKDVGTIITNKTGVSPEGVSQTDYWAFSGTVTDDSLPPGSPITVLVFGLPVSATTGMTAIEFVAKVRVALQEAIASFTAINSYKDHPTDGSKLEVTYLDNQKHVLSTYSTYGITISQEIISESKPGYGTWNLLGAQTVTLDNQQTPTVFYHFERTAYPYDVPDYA

[2] = target: T1, gp11 fused to an HA peptide (gp11-HA), bacteriophage T4 gene product 11 (bacteriophage T4); assay: on-chip expression of gp10, capture on gp11-HA traps; free traps post-stained with labeled gp10
[3] = target: T1, gp11 fused to an HA peptide (gp11-HA), bacteriophage T4 gene product 11 (bacteriophage T4); assay: on-chip expression of gp10, capture on pre-synthesized gp11-HA traps; post-stained with labeled gp10

Measured: binding

B1: gp10, bacteriophage T4 gene product 10 (protein)
chain: MKQNINIGNVVDDGTGDYLRKGGIKINENFDELYYELGDGDVPYSAGAWKTYNASSGQTLTAEWGKSYAINTSSGRVTINLPKGTVNDYNKVIRARDVFATWNVNPVTLVAASGDTIKGSAVPVEINVRFSDLELVYCAPGRWEYVKNKQIDKITSSDISNVARKEFLVEVQGQTDFLDVFRGTSYNVNNIRVKHRGNELYYGDVFSENSDFGSPGENEGELVPLDGFNIRLRQPCNIGDTVQIETFMDGVSQWRSSYTRRQIRLLDSKLTSKTSLEGSIYVTDLSTMKSIPFSAFGLIPGEPINPNSLEVRFNGILQELAGTVGMPLFHCVGADSDDEVECSVLGGTWEQSHTDYSVETDENGIPEILHFDSVFEHGDIINITWFNNDLGTLLTKDEIIDETDNLYVSQGPGVDISGDVNLTDFDKIGWPNVEAVQSYQRAFNAVSNIFDTIYPIGTIYENAVNPNNPVTYMGFGSWKLFGQGKVLVGWNEDISDPNFALNNNDLDSGGNPSHTAGGTGGSTSVTLENANLPATETDEEVLIVDENGSVIVGGCQYDPDESGPIYTKYREAKASTNSTHTPPTSITNIQPYITVYRWIRIA
binds: all assays above
